These are yes or no findings as the source states them, for the method shown. In cells and extracts the contact can be indirect. Some binding calls cover weakened binding; strength is not graded here.

Protein sequences, listed by entry. Tags and fused reporters are not part of them. Lines headed by an entry give the natural chain unless they say otherwise; changes in a name come on top.
UniProt O75533: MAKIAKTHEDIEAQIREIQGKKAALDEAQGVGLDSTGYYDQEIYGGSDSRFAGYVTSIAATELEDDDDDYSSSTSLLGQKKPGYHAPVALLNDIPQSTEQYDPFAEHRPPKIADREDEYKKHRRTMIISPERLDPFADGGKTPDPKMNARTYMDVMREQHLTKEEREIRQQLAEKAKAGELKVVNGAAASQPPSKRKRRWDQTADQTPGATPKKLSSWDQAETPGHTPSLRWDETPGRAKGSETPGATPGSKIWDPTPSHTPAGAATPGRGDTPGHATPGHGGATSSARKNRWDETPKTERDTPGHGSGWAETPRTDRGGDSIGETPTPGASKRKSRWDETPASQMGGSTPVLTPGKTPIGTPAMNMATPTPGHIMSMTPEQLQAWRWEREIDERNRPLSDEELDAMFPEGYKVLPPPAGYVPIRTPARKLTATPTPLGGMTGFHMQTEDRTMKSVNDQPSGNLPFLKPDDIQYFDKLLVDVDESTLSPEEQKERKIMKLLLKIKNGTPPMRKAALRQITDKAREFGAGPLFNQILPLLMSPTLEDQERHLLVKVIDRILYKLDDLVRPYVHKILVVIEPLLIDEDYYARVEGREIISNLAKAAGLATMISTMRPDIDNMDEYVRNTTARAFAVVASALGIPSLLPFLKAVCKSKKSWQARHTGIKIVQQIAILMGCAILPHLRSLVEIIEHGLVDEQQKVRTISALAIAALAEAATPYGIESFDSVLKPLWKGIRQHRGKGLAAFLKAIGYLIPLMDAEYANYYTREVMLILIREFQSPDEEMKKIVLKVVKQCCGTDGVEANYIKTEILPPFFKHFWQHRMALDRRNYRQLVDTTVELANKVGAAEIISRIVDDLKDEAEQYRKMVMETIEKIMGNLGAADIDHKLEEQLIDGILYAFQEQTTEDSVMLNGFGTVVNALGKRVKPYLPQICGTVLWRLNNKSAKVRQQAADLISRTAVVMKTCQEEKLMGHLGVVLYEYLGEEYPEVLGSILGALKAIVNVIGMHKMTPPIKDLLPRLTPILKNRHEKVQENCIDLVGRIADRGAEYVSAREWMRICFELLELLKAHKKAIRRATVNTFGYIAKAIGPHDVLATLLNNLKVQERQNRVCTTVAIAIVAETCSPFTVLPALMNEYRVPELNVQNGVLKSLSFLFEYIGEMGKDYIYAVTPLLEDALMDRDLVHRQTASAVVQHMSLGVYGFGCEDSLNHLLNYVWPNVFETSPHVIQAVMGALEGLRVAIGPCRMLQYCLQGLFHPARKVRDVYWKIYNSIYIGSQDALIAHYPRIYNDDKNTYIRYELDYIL

The values below come from doi:10.1101/2023.02.25.530019.

The target in this assay is FLAG-SF3B1 K700E (UniProt O75533). The assay can be described thus: co-IP.

B1: U2AF1 (protein, UniProt Q01081 1-240)
chain: MAEYLASIFGTEKDKVNCSFYFKIGACRHGDRCSRLHNKPTFSQTIALLNIYRNPQNSSQSADGLRCAVSDVEMQEHYDEFFEEVFTEMEEKYGEVEEMNVCDNLGDHLVGNVYVKFRREEDAEKAVIDLNNRWFNGQPIHAELSPVTDFREACCRQYEMGECTRGGFCNFMHLKPISRELRRELYGRRRKKHRSRSRSRERRSRSRDRGRGGGGGGGGGGGGRERDRRRSRDRERSGRF
As to B1, the binding entry is reported as “binds”.

B2: HTATSF1 (protein, UniProt O43719 1-755)
chain: MSGTNLDGNDEFDEQLRMQELYGDGKDGDTQTDAGGEPDSLGQQPTDTPYEWDLDKKAWFPKITEDFIATYQANYGFSNDGASSSTANVEDVHARTAEEPPQEKAPEPTDARKKGEKRKAESGWFHVEEDRNTNVYVSGLPPDITVDEFIQLMSKFGIIMRDPQTEEFKVKLYKDNQGNLKGDGLCCYLKRESVELALKLLDEDEIRGYKLHVEVAKFQLKGEYDASKKKKKCKDYKKKLSMQQKQLDWRPERRAGPSRMRHERVVIIKNMFHPMDFEDDPLVLNEIREDLRVECSKFGQIRKLLLFDRHPDGVASVSFRDPEEADYCIQTLDGRWFGGRQITAQAWDGTTDYQVEETSREREERLRGWEAFLNAPEANRGLRRSDSVSASERAGPSRARHFSEHPSTSKMNAQETATGMAFEEPIDEKKFEKTEDGGEFEEGASENNAKESSPEKEAEEGCPEKESEEGCPKRGFEGSCSQKESEEGNPVRGSEEDSPKKESKKKTLKNDCEENGLAKESEDDLNKESEEEVGPTKESEEDDSEKESDEDCSEKQSEDGSEREFEENGLEKDLDEEGSEKELHENVLDKELEENDSENSEFEDDGSEKVLDEEGSEREFDEDSDEKEEEEDTYEKVFDDESDEKEDEEYADEKGLEAADKKAEEGDADEKLFEESDDKEDEDADGKEVEDADEKLFEDDDSNEKLFDEEEDSSEKLFDDSDERGTLGGFGSVEEGPLSTGSSFILSSDDDDDDI
In the case of B2, the binding entry is reported as “binds”.
